Results are given in words; binding and its absence hold for the method and conditions named. Binding seen in cells or lysates may run through a third protein. These calls come from enrichment with a bait or labelling near it, and not all partners need be listed.
B1: PYGL (protein, UniProt P06737 1-847)
chain: MAKPLTDQEKRRQISIRGIVGVENVAELKKSFNRHLHFTLVKDRNVATTRDYYFALAHTVRDHLVGRWIRTQQHYYDKCPKRVYYLSLEFYMGRTLQNTMINLGLQNACDEAIYQLGLDIEELEEIEEDAGLGNGGLGRLAACFLDSMATLGLAAYGYGIRYEYGIFNQKIRDGWQVEEADDWLRYGNPWEKSRPEFMLPVHFYGKVEHTNTGTKWIDTQVVLALPYDTPVPGYMNNTVNTMRLWSARAPNDFNLRDFNVGDYIQAVLDRNLAENISRVLYPNDNFFEGKELRLKQEYFVVAATLQDIIRRFKASKFGSTRGAGTVFDAFPDQVAIQLNDTHPALAIPELMRIFVDIEKLPWSKAWELTQKTFAYTNHTVLPEALERWPVDLVEKLLPRHLEIIYEINQKHLDRIVALFPKDVDRLRRMSLIEEEGSKRINMAHLCIVGSHAVNGVAKIHSDIVKTKVFKDFSELEPDKFQNKTNGITPRRWLLLCNPGLAELIAEKIGEDYVKDLSQLTKLHSFLGDDVFLRELAKVKQENKLKFSQFLETEYKVKINPSSMFDVQVKRIHEYKRQLLNCLHVITMYNRIKKDPKKLFVPRTVIIGGKAAPGYHMAKMIIKLITSVADVVNNDPMVGSKLKVIFLENYRVSLAEKVIPATDLSEQISTAGTEASGTGNMKFMLNGALTIGTMDGANVEMAEEAGEENLFIFGMRIDDVAALDKKGYEAKEYYEALPELKLVIDQIDNGFFSPKQPDLFKDIINMLFYHDRFKVFADYEAYVKCQDKVSQLYMNPKAWNTMVLKNIAASGKFSSDRTIKEYAQNIWNVEPSDLKISLSNESNKVNGN
B2: HSD17B4 (protein, UniProt P51659 1-736)
chain: MGSPLRFDGRVVLVTGAGAGLGRAYALAFAERGALVVVNDLGGDFKGVGKGSLAADKVVEEIRRRGGKAVANYDSVEEGEKVVKTALDAFGRIDVVVNNAGILRDRSFARISDEDWDIIHRVHLRGSFQVTRAAWEHMKKQKYGRIIMTSSASGIYGNFGQANYSAAKLGLLGLANSLAIEGRKSNIHCNTIAPNAGSRMTQTVMPEDLVEALKPEYVAPLVLWLCHESCEENGGLFEVGAGWIGKLRWERTLGAIVRQKNHPMTPEAVKANWKKICDFENASKPQSIQESTGSIIEVLSKIDSEGGVSANHTSRATSTATSGFAGAIGQKLPPFSYAYTELEAIMYALGVGASIKDPKDLKFIYEGSSDFSCLPTFGVIIGQKSMMGGGLAEIPGLSINFAKVLHGEQYLELYKPLPRAGKLKCEAVVADVLDKGSGVVIIMDVYSYSEKELICHNQFSLFLVGSGGFGGKRTSDKVKVAVAIPNRPPDAVLTDTTSLNQAALYRLSGDWNPLHIDPNFASLAGFDKPILHGLCTFGFSARRVLQQFADNDVSRFKAIKARFAKPVYPGQTLQTEMWKEGNRIHFQTKVQETGDIVISNAYVDLAPTSGTSAKTPSEGGKLQSTFVFEEIGRRLKDIGPEVVKKVNAVFEWHITKGGNIGAKWTIDLKSGSGKVYQGPAKGAADTTIILSDEDFMEVVLGKLDPQKAFFSGRLKARGNIMLSQKLQMILKDYAKL
B3: electron-transfer-flavoprotein (protein, UniProt P38117 1-255)
chain: MAELRVLVAVKRVIDYAVKIRVKPDRTGVVTDGVKHSMNPFCEIAVEEAVRLKEKKLVKEVIAVSCGPAQCQETIRTALAMGADRGIHVEVPPAEAERLGPLQVARVLAKLAEKEKVDLVLLGKQAIDDDCNQTGQMTAGFLDWPQGTFASQVTLEGDKLKVEREIDGGLETLRLKLPAVVTADLRLNEPRYATLPNIMKAKKKKIEVIKPGDLGVDLTSKLSVISVEDPPQRTAGVKVETTEDLVAKLKEIGRI
B4: PGD (protein, UniProt P52209 1-483)
chain: MAQADIALIGLAVMGQNLILNMNDHGFVVCAFNRTVSKVDDFLANEAKGTKVVGAQSLKEMVSKLKKPRRIILLVKAGQAVDDFIEKLVPLLDTGDIIIDGGNSEYRDTTRRCRDLKAKGILFVGSGVSGGEEGARYGPSLMPGGNKEAWPHIKTIFQGIAAKVGTGEPCCDWVGDEGAGHFVKMVHNGIEYGDMQLICEAYHLMKDVLGMAQDEMAQAFEDWNKTELDSFLIEITANILKFQDTDGKHLLPKIRDSAGQKGTGKWTAISALEYGVPVTLIGEAVFARCLSSLKDERIQASKKLKGPQKFQFDGDKKSFLEDIRKALYASKIISYAQGFMLLRQAATEFGWTLNYGGIALMWRGGCIIRSVFLGKIKDAFDRNPELQNLLLDDFFKSAVENCQDSWRRAVSTGVQAGIPMPCFTTALSFYDGYRHEMLPASLIQAQRDYFGAHTYELLAKPGQFIHTNWTGHGGTVSSSSYNA
B5: ERP44 (protein, UniProt Q9BS26 30-406)
chain: EITSLDTENIDEILNNADVALVNFYADWCRFSQMLHPIFEEASDVIKEEFPNENQVVFARVDCDQHSDIAQRYRISKYPTLKLFRNGMMMKREYRGQRSVKALADYIRQQKSDPIQEIRDLAEITTLDRSKRNIIGYFEQKDSDNYRVFERVANILHDDCAFLSAFGDVSKPERYSGDNIIYKPPGHSAPDMVYLGAMTNFDVTYNWIQDKCVPLVREITFENGEELTEEGLPFLILFHMKEDTESLEIFQNEVARQLISEKGTINFLHADCDKFRHPLLHIQKTPADCPVIAIDSFRHMYVFGDFKDVLIPGKLKQFVFDLHSGKLHREFHHGPDPTDTAPGEQAQDVASSPPESSFQKLAPSEYRYTLLRDRDEL
B6: TBCA (protein, UniProt O75347 1-108)
chain: MADPRVRQIKIKTGVVKRLVKEKVMYEKEAKQQEEKIEKMRAEDGENYDIKKQAEILQESRMMIPDCQRRLEAAYLDLQRILENEKDLEEAEEYKEARLVLDSVKLEA
B7: phosphofructokinase (protein, UniProt P17858 1-780)
chain: MAAVDLEKLRASGAGKAIGVLTSGGDAQGMNAAVRAVTRMGIYVGAKVFLIYEGYEGLVEGGENIKQANWLSVSNIIQLGGTIIGSARCKAFTTREGRRAAAYNLVQHGITNLCVIGGDGSLTGANIFRSEWGSLLEELVAEGKISETTARTYSHLNIAGLVGSIDNDFCGTDMTIGTDSALHRIMEVIDAITTTAQSHQRTFVLEVMGRHCGYLALVSALASGADWLFIPEAPPEDGWENFMCERLGETRSRGSRLNIIIIAEGAIDRNGKPISSSYVKDLVVQRLGFDTRVTVLGHVQRGGTPSAFDRILSSKMGMEAVMALLEATPDTPACVVTLSGNQSVRLPLMECVQMTKEVQKAMDDKRFDEATQLRGGSFENNWNIYKLLAHQKPPKEKSNFSLAILNVGAPAAGMNAAVRSAVRTGISHGHTVYVVHDGFEGLAKGQVQEVGWHDVAGWLGRGGSMLGTKRTLPKGQLESIVENIRIYGIHALLVVGGFEAYEGVLQLVEARGRYEELCIVMCVIPATISNNVPGTDFSLGSDTAVNAAMESCDRIKQSASGTKRRVFIVETMGGYCGYLATVTGIAVGADAAYVFEDPFNIHDLKVNVEHMTEKMKTDIQRGLVLRNEKCHDYYTTEFLYNLYSSEGKGVFDCRTNVLGHLQQGGAPTPFDRNYGTKLGVKAMLWLSEKLREVYRKGRVFANAPDSACVIGLKKKAVAFSPVTELKKDTDFEHRMPREQWWLSLRLMLKMLAQYRISMAAYVSGELEHVTRRTLSMDKGF

Chains of the proteins cited; added tags and fusions are not shown. Lines headed by an entry give the natural chain unless they say otherwise; changes in a name come on top. Residues count along the entry.
UniProt P61081: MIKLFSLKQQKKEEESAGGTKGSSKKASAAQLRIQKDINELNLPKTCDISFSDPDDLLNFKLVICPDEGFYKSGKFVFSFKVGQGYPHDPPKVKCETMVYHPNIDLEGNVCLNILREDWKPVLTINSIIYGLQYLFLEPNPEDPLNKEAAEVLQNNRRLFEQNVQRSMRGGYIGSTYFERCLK
UniProt Q04760: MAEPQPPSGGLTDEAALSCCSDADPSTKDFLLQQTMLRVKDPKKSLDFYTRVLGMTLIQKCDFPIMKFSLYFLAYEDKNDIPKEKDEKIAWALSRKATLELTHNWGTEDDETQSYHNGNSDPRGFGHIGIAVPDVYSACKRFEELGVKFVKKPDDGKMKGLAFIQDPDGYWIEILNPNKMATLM
UniProt P27824, residues 21-592: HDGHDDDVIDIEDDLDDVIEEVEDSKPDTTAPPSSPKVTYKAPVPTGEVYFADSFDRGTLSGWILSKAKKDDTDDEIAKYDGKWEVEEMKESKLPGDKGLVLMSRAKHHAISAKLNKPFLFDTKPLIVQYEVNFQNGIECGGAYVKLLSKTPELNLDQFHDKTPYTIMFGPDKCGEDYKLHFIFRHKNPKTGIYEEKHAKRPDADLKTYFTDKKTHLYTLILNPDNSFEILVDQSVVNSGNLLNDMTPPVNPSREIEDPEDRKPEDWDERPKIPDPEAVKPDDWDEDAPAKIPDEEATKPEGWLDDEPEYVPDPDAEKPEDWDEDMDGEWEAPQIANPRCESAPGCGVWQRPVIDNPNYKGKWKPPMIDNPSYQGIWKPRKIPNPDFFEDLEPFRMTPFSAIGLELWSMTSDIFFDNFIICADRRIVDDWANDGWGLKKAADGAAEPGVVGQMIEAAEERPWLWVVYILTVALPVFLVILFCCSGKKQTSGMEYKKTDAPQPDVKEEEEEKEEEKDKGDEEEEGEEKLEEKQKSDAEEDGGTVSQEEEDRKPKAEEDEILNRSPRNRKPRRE

biological target: STAT1-Bio (signal transducers and activators of transcription 1 with a carboxy-terminal biotinylation tag), without activation (human) (UniProt P42224); test: affinity purification with mass spectrometry; streptavidin bead pull-down of in situ biotinylated STAT1-Bio from HEK 293T whole cell extracts (modified RIPA buffer: 50 mM Tris-HCl pH 7.8, 150 mM NaCl, 1% NP-40, 0.25% sodium deoxycholate, 1 mM EDTA), 1.5 h at 4°C, 3 washes; triple SILAC against GFP-Bio control; cells treated with erythropoietin or left untreated; hits with log2 FC > 1 and p < 0.005

binding, binds:
ubiquitin-conjugating enzyme E2M (from UniProt P61081 1-183)
GLO1 (from UniProt Q04760 1-184)
CANX (from UniProt P27824 21-592)
B1
B2
B3
B4
B5
B6
B7

— PMC4761381
